# At least one structure is not confirmed: it was looked up by name or label, or the drawing left a doubt.
# Tests used:
# [1] = test system: human 293T tumor cells expressing V-GFP-TfR-OVA fusion; test: Western blot of fusion protein with anti-GFP antibody; assay type: cell-based; conditions: as restated with the cross-presentation results
# Description: (§1) The autophagy inhibitor […] (3-MA) and the autophagy inducer rapamycin were used to modulate autophagy and observe their effect on human 293T tumor cells expressing V-GFP-TfR-OVA fusion (a peptide containing mutated ubiquitin, GFP (green fluorescent protein), the transmembrane domain of transferrin receptor and chicken ovalbumin). In addition 10 mM NH4Cl was used to inhibit lysosome mediated protein degradation. Cells expressing V-GFP-TfR-OVA were either untreated, treated with 10 mM 3-MA for 24 hours, treated with 10 mM 3-MA and 1 μM Velcade for 24 hours, 50 nM rapamycin for 24 hours, 50 nM rapamycin and 1 μM Velcade for 24 hours, 10 mM NH4Cl for 24 hours, or with 1 μM Velcade and 10 mM NH4Cl for 24 hours. Cell lysates were prepared by resuspending pelleted cells in SDS containing sample lysis buffer and subjected to western blot analysis with anti-GFP antibody.
# [2] = test system: 293T tumor cells expressing V-GFP-TfR-OVA; test: In vitro cross-presentation of treated tumor cells by DC to OT-I T cells (CFSE dilution); assay type: cell-based, human; conditions: tumor cells treated as in Example 2, irradiated; FIG. 3
# Description: as §1
# 293T tumor cells expressing V-GFP-TfR-OVA were treated as described in Example 2, and used as the source of antigens for cross-presentation in vitro after irradiation (15,000 rad). One million tumor cells were incubated with two million DC for 6 hours before the addition of CFSE labeled naïve T cells from OT-I transgenic mice that recognize peptides derived from OVA protein. The OT-I division as indicated by dilution of CFSE label was used as the readout.
structure (smiles),measurement,setting,value
CO[C@H]1C[C@@H]2CC[C@@H](C)[C@@](O)(O2)C(=O)C(=O)N2CCCC[C@H]2C(=O)O[C@H]([C@H](C)C[C@@H]2CC[C@@H](O)[C@H](OC)C2)CC(=O)[C@H](C)/C=C(\C)[C@@H](O)[C@@H](OC)C(=O)[C@H](C)C[C@H](C)/C=C/C=C/C=C/1C [rapamycin],antigen / protein level detected by Western blot,[1],much lower than that of untreated control cells
same,"cross-presentation (OT-I division, CFSE dilution)",[2],greatly increased the cross-presentation of tumor cells
